A short description of the experiment: qHTS Assay for Lipid Storage Modulators in Drosophila S3 Cells.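 As to cell number change: cells counted by Cell Tracker Red CMTPX staining in the red channel.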 The conditions noted are these: BODIPY lipid droplet fluorescence, 18-24 h; for cell number change: measured here: cell count max response, cells fed with added oleic acid. In short, it runs like this: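 Drosophila S3 cells got compounds at several concentrations plus oleic acid (400 uM solution). Laser-scanning cytometry with 488 nm excitation read lipid droplets at 500-530 nm and cells at 575-640 nm. Percent activity was relative to 20 uM Triacsin C.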
On the technique in general: In qHTS, concentration-response curves come from the screen itself.

Setting [1] is: measured here: cell number channel AC50, cells fed with added oleic acid.
[2] abbreviates: measured here: lipid fluorescence (Fed channel) AC50, cells fed with added oleic acid.

Molecules are shown by their SMILES. The list shows a part of the results. Shown are side measurements of this screen, not its main read-out; they come without a call. The list favours compounds with an active or inconclusive main result. Words in brackets tell the shape of the fitted curve; partial curves, single points and poor fits give uncertain potencies.

For the compound `CCCn1c(N)c(C(=O)CSc2nnc3ccccn23)c(=O)n(C)c1=O`, the cell number change was 0.803%.
One may read the AC50 as the midpoint of the concentration-response curve, whichever way the signal moves. Read a high AC50 as weaker potency. As for `COc1ccc(C(=O)NCCCn2nc(C)cc2C)cc1S(=O)(=O)N1CCOCC1`, the cell number change was 137%. For the same compound, the AC50 under setting [1] was 20.6 µM [rising, partial curve]. Moreover, the concentration at half-maximal activity (AC50) under setting [2] is 18.4 µM [rising, partial curve].
`Cc1ccc(NC(=O)/C(=C/c2ccncc2)NC(=O)c2ccccc2)cc1`: the cell number change was -2.63%. In addition, under setting [2], the AC50 is 36.6 µM [falling, partial curve, poor fit].
Consider `CCCCN(CC)S(=O)(=O)c1c(C)[nH]c(=O)[nH]c1=O`, for which the cell number change was -33.3%. Further, the AC50 under setting [1] is 2.59 µM [falling, partial curve, poor fit]. Further, the AC50 under setting [2] is 0.058 µM [falling, full curve].
`CCN(CC)S(=O)(=O)c1cc(C(=O)Nc2cc(S(=O)(=O)N3CCOCC3)ccc2N2CCCC2)ccc1F`: the cell number change is -4.59%. The AC50 under setting [1] was 0.082 µM [falling, full curve, poor fit]. Also, under setting [2], the AC50 was 6.51 µM [falling, single point].
As to `C=CCSc1nncn1/N=C/c1ccc(OC)cc1`, the cell number change is -1.16%. In addition, the AC50 under setting [2] is 1.3 µM [rising, partial curve].
With `O=C(N/N=C\c1ccc(CN(Cc2ccc(Cl)cc2)S(=O)(=O)c2ccccc2)o1)C(=O)Nc1ccc(F)cc1`, the cell number change was determined as 0.58%. Further, under setting [2], the AC50 was 18.4 µM [rising, partial curve].
For the compound `Cc1ccc(S(=O)(=O)NCCCNS(=O)(=O)c2ccccc2)cc1`, the cell number change was determined as 31.7%.
For the compound `NC(=O)c1cc(-c2ccccc2)nc(N2CCCCCC2)n1`, the cell number change is -47.3%. Moreover, the AC50 under setting [1] is 29.1 µM [falling, single point]. The AC50 under setting [2] was 20.6 µM [falling, single point].
In the case of `Cc1cccc(N2CC(C)Cn3c2nc2c3c(=O)n(CC(=O)OCc3ccccc3)c(=O)n2C)c1` (stereo unspecified), the cell number change was determined as 0.656%. The AC50 under setting [1] is 0.146 µM [rising, full curve, poor fit]. Further, the AC50 under setting [2] is 2.06 µM [rising, partial curve].
As for `CN1C(=O)[C@H]2[C@@H](/C=C/c3ccccc3)N3C(=O)CN(Cc4ccccn4)C(=O)[C@@]3(C)[C@H]2C1=O`, the cell number change is -3.59%.
For the compound `CSCC[C@H](N)C(=O)N1CCC(C(=O)N[C@H](C(=O)NCc2ccccc2F)C(C)C)CC1`, the cell number change was -13.2%. The AC50 under setting [2] was 0.00461 µM [falling, full curve, poor fit].
As to `CCCCCCc1cc2cc(S(=O)(=O)c3ccc(Cl)cc3)c(=O)oc2cc1O`, the cell number change is -75.3%. Moreover, the AC50 under setting [1] was 20.6 µM [falling, single point]. Also, the AC50 under setting [2] was 18.4 µM [falling, single point].
Consider `O=C(CO/N=C/c1ccccc1OC(F)F)NC1CCCCC1`, for which the cell number change was found to be 46.7%. For the same compound, the AC50 under setting [1] was 23.1 µM [rising, single point].
In the case of `Cc1cc(C(=O)N/N=C\C(Br)=C\c2ccccc2)c(C)o1`, the cell number change was found to be 26.5%. The AC50 under setting [1] was 0.731 µM [falling, single point].
Turning to `COc1ccc(/C=C/C(=O)NNC(=O)c2ccncc2)c(OC)c1`, the cell number change was -4.52%. Further, the AC50 under setting [2] is 0.58 µM [falling, single point].
For the compound `COc1ccc(CCNC(=O)c2cc3c(=O)n4ccccc4nc3n(C3CCCCC3)c2=N)cc1`, the cell number change is -26.5%. Also, the half-maximal activity concentration (AC50) under setting [1] was 2.31 µM [rising, single point]. Further, under setting [2], the AC50 is 11.6 µM [falling, single point].
In the case of `Cc1cc(OCC(=O)NCC2CCC(C(=O)O)CC2)c2c(C)cc(=O)oc2c1` (stereo unspecified), the cell number change is 23%. Also, under setting [2], the AC50 is 5.17 µM [rising, full curve].
Take `COc1ccccc1NC(=O)/C(=C/c1cccs1)NC(=O)c1ccco1`: the cell number change is -37.2%. Further, the AC50 under setting [1] is 5.17 µM [falling, partial curve, poor fit]. Besides, the AC50 under setting [2] is 29.1 µM [falling, partial curve, poor fit].
Take `COc1ccc(N2C(=O)CC(N3CCN(S(=O)(=O)c4c(C)cc(C)cc4C)CC3)C2=O)cc1` (stereo unspecified): the cell number change is -34.8%. For the same compound, under setting [1], the AC50 is 0.731 µM [falling, full curve, poor fit]. Under setting [2], the half-maximal activity concentration (AC50) was 1.64 µM [falling, partial curve].
For `COc1ccc(/C=C/C(=O)NC(C)CCc2ccccc2)cc1` (stereo unspecified), the cell number change was determined as 3.99%. The AC50 under setting [2] was 0.103 µM [rising, full curve, poor fit].
As to `CCN(C(=O)CSc1nnc(-c2ccncc2)n1C)C1CCS(=O)(=O)C1` (stereo unspecified), the AC50 under setting [1] is 4.11 µM [falling, single point].
For the compound `NC(=O)c1ccc(SCC(=O)OCC(=O)NC2CCCCCCC2)c([N+](=O)[O-])c1`, the cell number change was -11.7%. Moreover, the AC50 under setting [2] was 0.259 µM [falling, full curve, poor fit].
`COc1ccc(C(=O)Nc2ccncc2)cc1S(=O)(=O)N1CCOCC1`: the cell number change was -5.83%. For the same compound, under setting [2], the AC50 is 23.1 µM [falling, single point].
For the compound `CCC(C)(NC(=O)c1ccccc1)C(=O)O` (stereo unspecified), the cell number change is -23.7%. For the same compound, the AC50 under setting [2] was 0.651 µM [falling, full curve, poor fit].
As for `CN(C)c1ccnc2sc(C(=O)c3ccccc3)c(N)c12`, the cell number change came out at 26.1%. The AC50 under setting [2] was 14.6 µM [rising, partial curve].
As to `O=C(NCCS(=O)(=O)N1CCN(c2cccc(Cl)c2)CC1)c1ccco1`, the cell number change was found to be 5.72%.
Regarding `Cc1ccc(-n2c(Cc3cccn3C)nnc2SCC(=O)NCc2ccco2)cc1`, the cell number change was -8.09%. Also, under setting [1], the concentration at half-maximal activity (AC50) is 5.8 µM [falling, single point].
With `Cn1c(N=Nc2ccccc2)nc2ccccc21`, the cell number change was -43.6%. In addition, under setting [1], the AC50 was 18.4 µM [falling, single point].
With `Clc1ccc(C(c2nnnn2C2CCCC2)N2CCSCC2)cc1` (stereo unspecified), the cell number change is 5.49%.
Regarding `Cc1ccc(C(=O)Nc2nc3ccccc3s2)s1`, the cell number change came out at 16%. Also, under setting [2], the AC50 was 0.0058 µM [falling, full curve].
For `N#Cc1ccc(CSc2ccccn2)c(Cl)c1`, the cell number change was 12.5%. In addition, the AC50 under setting [2] is 29.1 µM [falling, single point].
Turning to `Cc1ccc(C)c(NC(=O)COc2coc(CN3CCc4ccccc43)cc2=O)c1`, the cell number change was -1%. Under setting [1], the AC50 is 2.06 µM [rising, partial curve].
For `Cc1cccc(NC(=O)c2ccc(COc3ccccc3[N+](=O)[O-])o2)n1`, the cell number change was -5.67%. For the same compound, under setting [1], the AC50 is 4.11 µM [rising, single point].
`COc1ccccc1-c1cc(C(=O)NC2CCN(C)CC2)c2ccc(Cl)c(C)c2n1`: the cell number change worked out at 18%. Also, under setting [2], the concentration at half-maximal activity (AC50) was 35.5 µM [rising, single point].
For the compound `CCCn1c(SCC(=O)NCc2ccc(F)cc2)n[nH]c1=O`, the cell number change was 23.8%. Besides, under setting [1], the AC50 was 0.0651 µM [rising, full curve, poor fit]. Moreover, the AC50 under setting [2] is 0.0326 µM [rising, full curve].

The record behind these values is PubChem BioAssay AID2685 (National Center for Advancing Translational Sciences (NCATS), 2010).
